# At least one compound was matched to its structure with a doubt left.
# Protein sequences, listed by entry. Tags and fused reporters are not part of them. Lines headed by an entry give the natural chain unless they say otherwise; changes in a name come on top.
# UniProt P04483: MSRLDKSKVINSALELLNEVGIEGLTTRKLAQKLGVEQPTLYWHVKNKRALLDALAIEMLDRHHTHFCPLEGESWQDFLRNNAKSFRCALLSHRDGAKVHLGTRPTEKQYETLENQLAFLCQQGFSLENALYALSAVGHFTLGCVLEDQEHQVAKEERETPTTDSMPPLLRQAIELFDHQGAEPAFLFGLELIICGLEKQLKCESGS
# Tests used:
# TetR [1] = molecular target: T1, TetR (Escherichia coli, UniProt P04483); assay: TetR biosensor, Cas12a cleavage reaction with fluorescence readout, detection of aTc and Doxy; format: biochemical; conditions: for Detection limit (LOD): lowest concentration with fluorescence greater than Sm (mean of SM negative samples + 3x standard deviation)
# T1 construct: His tag; made in house; host or cells: E. coli BL21 Star (DE3)
# Method: Target and nontarget strands (NTS) were annealed at a 1:2 ratio in 1× TAE+12.5 mM Mg^2+ for 5 minutes at 95° C., then snap cooled. To form the DNA/TF complex, 100 nM dsTarget complexes were incubated with 10 μM corresponding transcription factors (unless otherwise stated) for 15 minutes at 37° C. in incubation buffer (40 mM Tris-HCl 8 mM MgCl2, 20 mM NaCl, pH 8). Small molecules were added next, following the same incubation procedure. Prior to addition, small molecules were suspended in water, DMSO or ethanol.
# To monitor small molecule detection, 2 μl of the DNA/TF or DNA/TF/SM mixture were added to 10 μl total Cas12a cleavage reaction. […] Cleavage reactions were then immediately added to a microplate such as a Corning 384-well Black Flat Bottom Plates and read on a SynergyNeo2 Biotek fluorescence plate reader. Fluorescence measurements were taken with 487 nm excitation, 528 nm emission from the bottom of the plate for 2 hours. Fluorescence curves show raw fluorescence images unless otherwise stated.
# Dose response curves were fit on OriginLab graphing software using equation 1. A1 is the minimum asymptote, A2 is the maximum asymptote, X is the log of a given dosage, and p is the hill slope. The center of the curve is equal to Log x0, so the half response or EC 50=10^Logx0.
# The limit of detection for the biosensor was tested by introducing a range of small molecules from 4 nM to 40 μM using a 50:1 TetR dimer/dsDNA ratio (FIGS. 3E and F). […] The dose response curve of the biosensor was further assessed using the EC 50 value, which represents the concentration of a drug or analyte needed to reach a half maximum output signal based on a protein-analyte interaction.
# Detection limits were also considered using the standard definition of LOD which considers LOD to be equal to the fluorescence of the blank sample plus three times the standard deviation (Table 7 and Table 8). The detection limit was determined using the equation (39):
# Here, Sbl is equal to the mean of the SM negative samples and kSbl is the number of standard deviations of the negative sample added. For the Doxy experiments, 8 replicates were run and k=3. […] The detection limit (bolded) was then determined as the lowest concentration corresponding to a fluorescence signal great than Sm (the mean of small molecule negative samples+3× the standard deviation).
# TetR [2] = molecular target: T1, TetR; assay: TetR biosensor, lateral flow readout; format: biochemical; conditions: 20-nt gRNA, 30 minutes cleavage
# Method: DNA/TF/small molecule samples were incubated and added to Cas12a reactions containing 106 nM Cas12a, 100 nM gRNA, and 200 nM FAM-[…]-Biotin (SEQ ID NO: 38) or 5′FAM-TTTT(internal T-Biotin)TTTTT-BHQ1 (SEQ ID NO: 38) reporter (IDT). The Cas12a concentration was increased to speed up the reaction time. Samples were incubated for 30 minutes at 37° C. on a thermocycler block. The 10 μl samples were added directly to the dipstick, HybriDetect Universal Lateral Flow Assays from Milenia Biotec (MGHD1) and placed in 100 μl of LF running buffer containing 50% PEG 800. PEG was used to slow capillary flow down, giving reporter strands more time to interact with gold nanoparticle-antibody conjugates before flowing down the assay. This provided cleaner negative results. […]
# The trans-cleavage capabilities of Cas12a can cleave any single-stranded DNA in the system, enabling a variety of chemical modifications to be used in the single-stranded reporter. This feature allows for implementation of a visible paper-based lateral flow readout system using reporters with FAM and biotin modifications on either end (19, 21-26). […]
# Next, the lateral flow readout was tested by introducing aTc, Doxy, and IPTG to the TetR biosensor. […] Thus, the lateral flow assay can provide a visual readout mechanism for the biosensor, and the assay remains small-molecule specific. […]
# [3] = LOD varying with assay parameters
structure (smiles),measurement,setting,value
"C[C@H]1c2cccc(O)c2C(=O)C2=C(O)[C@]3(O)C(=O)C(C(N)=O)=C(O)[C@@H](N(C)C)[C@@H]3[C@@H](O)[C@@H]21 [Doxy, doxycycline]",concentration giving maximum (near maximum) fluorescence output,"TetR [1]; 10 μM TetR, 50:1 TetR dimer/dsDNA ratio",4 µM
same,Fluorescence Mean,"TetR [1]; 20 nt gRNA, Concentration 0.004 (unit not given)",9522.25
same,Fluorescence Mean,"TetR [1]; 20 nt gRNA, Concentration 0.04 (unit not given)",40251.25
same,Fluorescence Mean,"TetR [1]; 20 nt gRNA, Concentration 0.4 (unit not given)",41099.25
same,Fluorescence Mean,"TetR [1]; 20 nt gRNA, Concentration 1 (unit not given)",42083
same,Detection limit (LOD),TetR [1]; 20 nt gRNA,Detection Limit = 4 nM
same,Fluorescence Mean,"TetR [1]; 24 nt gRNA, Concentration 0.004 (unit not given)",6458.5
same,Fluorescence Mean,"TetR [1]; 24 nt gRNA, Concentration 0.04 (unit not given)",9054.5
same,Fluorescence Mean,"TetR [1]; 24 nt gRNA, Concentration 0.4 (unit not given)",32942
same,Fluorescence Mean,"TetR [1]; 24 nt gRNA, Concentration 1 (unit not given)",33837
same,Detection limit (LOD),TetR [1]; 24 nt gRNA,Detection limit = 40 nM
same,Detection limit (LOD),"TetR [1]; 24 nt gRNA, listed as doxycycline",40 nM
same,"LOD, lower end of the range demonstrated by the biosensor assays",TetR [1]; [3],900 pM
same,"LOD, upper end of the range demonstrated by the biosensor assays",TetR [1]; [3],80 nM
same,second (test) band on lateral flow strip,TetR [2],strong second band

# — patent US20240094229A1, “CRISPR-CAS /TRANSCRIPTION FACTOR-BASED COMPETITION ASSAY FOR DETECTION OF MOLECULAR ANALYTES” (Arizona Board of Regents on Behalf of Arizona State …, priority 2022, published 2024)
